Measurements: BigSolDB 2.1

COc1ccc2cc(C(C)C(=O)O)ccc2c1 (racemic)
Settings | solubility (mole fraction)
in 1,4-dioxane, 312.65 K | 0.105
in 1,4-dioxane, 316.45 K | 0.116
in 1,4-dioxane, 318.75 K | 0.122
in 1,4-dioxane, 321.05 K | 0.128
in 1,4-dioxane, 322.95 K | 0.132
in cyclopentyl methyl ether, 307.35 K | 0.025
in cyclopentyl methyl ether, 316.05 K | 0.031
in cyclopentyl methyl ether, 321.65 K | 0.036
in cyclopentyl methyl ether, 324.55 K | 0.04
in cyclopentyl methyl ether, 329.75 K | 0.047
in toluene, 312.15 K | 0.004
in toluene, 319.95 K | 0.006
in toluene, 321.45 K | 0.006
in toluene, 325.85 K | 0.008
in toluene, 326.15 K | 0.009
in toluene, 327.95 K | 0.01
in toluene, 332.45 K | 0.012
in toluene, 334.55 K | 0.013

COc1ccc2cc([C@H](C)C(=O)O)ccc2c1
Settings | solubility (mole fraction)
in 1,4-dioxane, 304.65 K | 0.116
in 1,4-dioxane, 311.05 K | 0.13
in 1,4-dioxane, 312.15 K | 0.134
in 1,4-dioxane, 316.85 K | 0.145
in 1,4-dioxane, 319.95 K | 0.155
in 1,4-dioxane, 322.85 K | 0.161
in cyclopentyl methyl ether, 310.65 K | 0.037
in cyclopentyl methyl ether, 314.85 K | 0.042
in cyclopentyl methyl ether, 318.35 K | 0.047
in cyclopentyl methyl ether, 327.35 K | 0.061
in cyclopentyl methyl ether, 333.55 K | 0.075
in toluene, 307.85 K | 0.006
in toluene, 315.85 K | 0.008
in toluene, 319.85 K | 0.01
in toluene, 323.15 K | 0.012
in toluene, 332.65 K | 0.019
